Target: Serine/threonine-protein kinase pim-2 (Homo sapiens) (UniProt Q9P1W9)
Test: compound-induced PIM2 thermal stabilization – biophysical, human, melting temperature shift (AID 505)
Conditions: Recombinant PIM2 thermal shift, Tm change; at 10 µM; buffer 10 mM HEPES; pH 7.5; NaCl 150 mM; with 50 µM L-Arg/L-Glu (1:1); stronger effect = higher value

Sequences of proteins named here, by UniProt entry; tags and fusion partners are left off. A change or cut given only in a name is not applied to a line headed by its entry.
UniProt Q9P1W9: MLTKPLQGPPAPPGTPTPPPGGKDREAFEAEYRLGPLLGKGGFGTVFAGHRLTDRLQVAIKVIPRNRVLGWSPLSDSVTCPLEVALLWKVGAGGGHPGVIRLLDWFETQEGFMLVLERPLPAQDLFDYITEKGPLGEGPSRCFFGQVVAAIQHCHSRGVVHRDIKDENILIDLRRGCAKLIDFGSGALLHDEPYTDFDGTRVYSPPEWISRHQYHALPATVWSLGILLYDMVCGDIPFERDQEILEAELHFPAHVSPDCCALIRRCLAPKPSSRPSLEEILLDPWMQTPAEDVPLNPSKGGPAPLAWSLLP

Row | Structure (SMILES) | Tm shift [Celsius]
1 | CCC(CO)Nc1ccc2ncc(-c3cccc(Cl)c3)n2n1 (configuration not stated) | 5.46
2 | CCC(CO)Nc1ccc2ncc(-c3cccc(NC(C)=O)c3)n2n1 (configuration not stated) | 3.21

Source: PubChem BioAssay AID505 (SGCOxCompounds, 2006)
